Our source for the binding values is publication PMC4377001.

Results are given in words; binding and its absence hold for the method and conditions named. For some assays here: In cells and extracts the contact can be indirect. Some results given as binding are weak or reduced against the parent protein; the word gives no strength. For some assays here: Sequences can lack the tags named with a protein.

The target in assay [1] is T1, full-length Nop58 (two-hybrid fusion) (yeast) (UniProt Q12499).
T1 sequence: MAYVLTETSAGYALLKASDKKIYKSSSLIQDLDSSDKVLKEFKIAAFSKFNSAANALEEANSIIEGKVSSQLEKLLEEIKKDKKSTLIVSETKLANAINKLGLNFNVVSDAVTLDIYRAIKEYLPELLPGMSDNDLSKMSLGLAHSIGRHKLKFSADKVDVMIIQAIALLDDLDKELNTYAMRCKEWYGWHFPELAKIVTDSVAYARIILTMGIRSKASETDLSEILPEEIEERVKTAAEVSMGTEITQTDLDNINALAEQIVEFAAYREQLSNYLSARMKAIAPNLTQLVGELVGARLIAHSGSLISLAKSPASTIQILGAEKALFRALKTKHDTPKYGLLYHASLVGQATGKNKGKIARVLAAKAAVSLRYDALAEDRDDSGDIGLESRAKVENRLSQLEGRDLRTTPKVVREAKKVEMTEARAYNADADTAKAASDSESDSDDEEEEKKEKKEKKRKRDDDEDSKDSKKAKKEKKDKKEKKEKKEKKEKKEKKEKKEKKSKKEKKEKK
The experiment in a line: two-hybrid; lexA DNA-binding domain (BD) fusions and Gal4 transcription activation domain (AD) fusions in yeast L40; reporter genes HIS3 and lacZ. For orientation: Reporter assays use an easily measured gene product as a stand-in for the process of interest.

A further assay has as its target T2, GST-Snu13 (yeast) (UniProt P39990).
T2 sequence: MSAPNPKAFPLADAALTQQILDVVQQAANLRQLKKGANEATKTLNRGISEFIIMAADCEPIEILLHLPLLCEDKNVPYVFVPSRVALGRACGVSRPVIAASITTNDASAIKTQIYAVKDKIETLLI
Put plainly: pull-down; GST or GST-Snu13 from E. coli total extract bound to glutathione-sepharose in PBS (1 hour, 4°C), washed, then incubated 2 hours with total extract expressing His-Nop1 and then His-Nop17, washes between; elution with 10 mM reduced glutathione; western blot with anti-GST and anti-His sera; only the target purified.

Assay [2] concerns the target T3, GST-Snu13/His-Nop1 complex (yeast) (UniProt P39990+P15646).
T3 sequence 1: T2 sequence
T3 sequence 2: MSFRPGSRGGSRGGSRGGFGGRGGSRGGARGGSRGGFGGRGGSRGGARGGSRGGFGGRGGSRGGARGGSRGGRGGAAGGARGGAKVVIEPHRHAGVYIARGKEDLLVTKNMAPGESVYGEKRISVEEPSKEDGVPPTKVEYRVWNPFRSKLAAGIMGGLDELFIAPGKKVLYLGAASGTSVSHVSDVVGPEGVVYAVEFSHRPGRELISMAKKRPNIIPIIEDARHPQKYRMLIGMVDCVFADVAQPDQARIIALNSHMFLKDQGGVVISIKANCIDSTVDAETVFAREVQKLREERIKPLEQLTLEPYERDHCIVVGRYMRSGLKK
The description is as above.

Assay [3] addresses T4, ProtA-Nop58 (yeast), Q12499.
T4 chain: T1 sequence
The experiment in a line: co-IP; ProtA-Nop58 from total yeast extract (WT and Δnop17 strains) on IgG-Sepharose, 2 hours at 4°C; 20 mM Tris-Cl pH 8.0, 0.5 mM magnesium acetate, 0.2% Triton X-100, 150 mM potassium acetate, 1 mM DTT; western blot. Particulars: remark: other sources report otherwise. For orientation: Immunoblotting shows a protein as a band on a membrane.

B1: Snu13 (two-hybrid fusion) (protein, UniProt P39990 1-126)
chain: T2 sequence
Turning to B1, the binding entry in assay [1] is reported as “binds”.

B2: His-Nop17 (protein, UniProt P38768 1-344)
chain: MADFLLRPIKQRHRNEDKYVSVDAADGSVSKIEPIADFVIKTKLLSANGPEKLQDGRKVFINVCHSPLVPKPEVDFNARIVFPLIIQNEWEIPIITSCYRMDHDKKGQECYVWDCCINSDCSRWICDDIQLREILVEWCLESCEIRDSVVLCRDRIAFPKMKKKGAELPALEVLNDELHQDYKAKMHKIIEEEAGDPMSILRGRNDDGDDNNDPDDGTLPPLFPIENKISGAKIEEIDKNEIAHRNLKQAPAPAPAPHEQQEDVPEYEVKMKRFKGAAYKLRILIENKAPNSKPDRFSPSYNFAENILYINGKLSIPLPRDIVVNAADIKIFHIRKERTLYIYI
For the molecule B2, the figures for the binding result (with GST-Snu13 (yeast); in assay [2]) were “no binding” and “binds”, respectively.

B3: His-Nop1 (protein, UniProt P15646 1-327)
chain: T3 sequence 2
With B3, the binding result in the assay with GST-Snu13 (yeast) was “binds”.

B4: Nop1 (endogenous), P15646 1-327 (protein)
chain: T3 sequence 2
In the case of B4, in assay [3], the binding entry is given as “no binding”.
